Laboratory results as given in patent publication US20160052997A1.
These are yes or no findings as the source states them, for the method shown. Binding can be weak; no strength is given.

Molecular target: purified recombinant HA protein of H1N1 (A/Solomon Island/03/06) (Influenza A virus A/Solomon Island/03/06 (H1N1))
Assay: SPR, Biacore T200

B1: CT120 (antibody, V domains shown)
VH: QVQLVQSGAEVKMPGSSVKVSCKTSGVFFSSHAISWVRQAPGQGLEWMGGISPMFGTTHYAQKFQGRVTITADQSTTTAYMELTSLTSEDTAVYYCARDGAGSYYPLNWFDPWGQGTLVTVSS
VL: EIVLTQSPATLSLSPGERATLSCRASENIWNNLAWYQQKPGQAPRLLISGASTGATGVPSRFRGSGSRTEFTLTISSLQSEDFAIYFCQQYNSWPRTFGPGTKVEIKR
Question: With B1 as the binder, how does the binding read?
Answer: The binding was “binds”.
